Assay results: PubChem BioAssay AID330 (DTP/NCI, 2004)
The list shows only some results of the screen, not a fair sample: it is rich in T/C values a quarter to a half above the control, in often repeated tests (any T/C) and in doses without a T/C. Further doses and runs are listed elsewhere. T/C is the treated group as % of the vehicle group. Some entries give survivors of the animals treated and no T/C: the source files T/C as zero there, which appears to mark a toxic dose or a test without result, not a measured value. Some doses without a T/C left all or most animals alive at the check, yet need not have been tolerated: survival well below the control is almost never listed, so the zero probably covers shortened survival too. Survivors were counted at the toxicity check, usually on the fifth day, unless a day is given; later deaths do not show. Schedule codes are those of the source, taken here to give the interval after Q, in days (D) or hours (H), and the number of doses after X. Some entries were tested several times; their values stand side by side, smallest first. For survival time, this PubChem deposit counts one and a half times the control or more as active, and values a quarter to a half above the control carry no call in these data; other NCI protocols may use other cut-offs. Brackets with × give the number of equal values in this list. Some T/C values carry the count of animals alive at the toxicity check (mostly the fifth day); without a count, all were alive then.

Test system: P388 leukemia ip, CD2F1 mice, survival T/C
Test: NCI In Vivo Anticancer Drug Screen. Data for tumor model P388 Leukemia (intraperitoneal) in CD2F1 (CDF1) mice
Settings: T/C endpoint: median survival time, higher T/C = longer survival
[1] = dose: 400.0 mg/kg/injection, schedule: Q04DX003 (ip), vehicle: saline with Tween-80
[2] = dose: 100.0 mg/kg/injection, schedule: Q01DX009 (ip), vehicle: saline with Tween-80
[3] = dose: 200.0 mg/kg/injection, schedule: Q01DX009 (ip), vehicle: saline with Tween-80
[4] = dose: 50.0 mg/kg/injection, schedule: Q01DX009 (ip), vehicle: saline
[5] = dose: 10.0 mg/kg/injection, schedule: Q01DX009 (ip), vehicle: other

How did the survivor count (dose: 10.0 mg/kg/injection, schedule: Q01DX009 (ip), vehicle: Klucel (hydroxypropylcellulose) (HPC)) turn out when `CC(C)CC1C(=O)N2CCCC2C2(O)OC(NC(=O)C3C=C4c5cccc6[nH]cc(c56)CC4N(C)C3)(C(C)C)C(=O)N12` (centres undefined) was run?
The survivor count was 6 of 6.

With `COc1ccc(CC2c3cc4c(cc3CCN2C)OCO4)c(/C=C\c2ccccc2)c1OC` (centres undefined) as the compound, how does the survivor count (dose: 50.0 mg/kg/injection, schedule: Q01DX001 (ip), vehicle: saline + alcohol) read?
The survivor count was 6 of 6.

What about the survivor count (dose: 100.0 mg/kg/injection, schedule: Q01DX001 (ip), vehicle: saline + alcohol) of the same compound?
The survivor count was 6 of 6.

Which results are given for `C[As](C)SCCC(N)C(=O)NC(CCS[As](C)C)C(=O)O` (centres undefined)?
T/C (dose: 25.0 mg/kg/injection, schedule: Q01DX009 (ip), vehicle: Klucel (hydroxypropylcellulose) (HPC)): 125 % of control; T/C (dose: 50.0 mg/kg/injection, schedule: Q01DX009 (ip), vehicle: Klucel (hydroxypropylcellulose) (HPC)): 125 and 133 % of control; T/C (dose: 100.0 mg/kg/injection, schedule: Q01DX009 (ip), vehicle: Klucel (hydroxypropylcellulose) (HPC)): 131 and 144 % of control; survivor count (dose: 200.0 mg/kg/injection, schedule: Q01DX009 (ip), vehicle: Klucel (hydroxypropylcellulose) (HPC)): 5 of 6

How did the survivor count [1] turn out when `C=CCn1cnc2c(=S)nc[nH]c21` was run?
Its survivor count is 6 of 6.

How did the T/C [2] turn out when `CC(=O)Nc1ccc(O)c(O)c1` was run?
Its T/C is 126 % of control.

And the T/C [3]?
The T/C was 145 % of control.

And the T/C (dose: 400.0 mg/kg/injection, schedule: Q01DX009 (ip), vehicle: saline with Tween-80)?
The T/C was 148 % of control.

Which survivor count (dose: 200.0 mg/kg/injection, schedule: Q01DX005 (ip), vehicle: saline with Tween-80) does the source give for `CN1CCN(CC2C(=O)C3CCC2C3)CC1` (centres undefined) here?
Its survivor count is 1 of 6.

`CC([OH2+])CNCCN.CC([OH2+])CNCCN.[Ni+2].[O-][Cl+3]([O-])([O-])[O-]` (centres undefined) was tested. Which survivor count [4] did it give?
The survivor count was 6 of 6.

`c1ccc(-c2ccc[n+](CC[n+]3cccc(-c4ccccn4)c3)c2)nc1` was tested. Which survivor count (dose: 240.0 mg/kg/injection, schedule: Q01DX005 (ip), vehicle: saline with Tween-80) did it give?
Its survivor count is 0 of 6.

Which survivor count (dose: 120.0 mg/kg/injection, schedule: Q01DX005 (ip), vehicle: Klucel (hydroxypropylcellulose) (HPC)) does the source give for `O=C(N=c1sc2ccccc2s1)N=c1sc2ccccc2s1` here?
The survivor count was 6 of 6.

What about the survivor count (dose: 240.0 mg/kg/injection, schedule: Q01DX005 (ip), vehicle: Klucel (hydroxypropylcellulose) (HPC)) of the same compound?
The survivor count was 1 of 6.

Which results are given for `O=S(=O)(N/N=C/c1ccncc1)c1ccccc1`?
T/C (dose: 25.0 mg/kg/injection, schedule: Q01DX009 (ip), vehicle: other): 130 % of control; T/C (dose: 50.0 mg/kg/injection, schedule: Q01DX009 (ip), vehicle: other): 130 and 134 % of control; T/C (dose: 100.0 mg/kg/injection, schedule: Q01DX009 (ip), vehicle: other): 138 % of control [5 of 6 alive]; T/C (dose: 200.0 mg/kg/injection, schedule: Q01DX009 (ip), vehicle: other): 128 and 138 % of control [5 of 6 alive]; survivor count (dose: 400.0 mg/kg/injection, schedule: Q01DX009 (ip), vehicle: other): 3 of 6 and 4 of 6

For `Nc1ncnc2c1ncn2C1OC(COS(N)(=O)=O)C(O)C1O` (centres undefined), which survivor count (dose: 0.18 mg/kg/injection, schedule: Q01DX005 (ip), vehicle: saline) is on record?
The survivor count was 5 of 6.

What about the T/C (dose: 0.37 mg/kg/injection, schedule: Q01DX001 (ip), vehicle: saline) of the same compound?
The T/C was 125 % of control.

What about the survivor count (dose: 0.37 mg/kg/injection, schedule: Q01DX005 (ip), vehicle: saline) of the same compound?
The survivor count was 0 of 5.

What about the survivor count (dose: 0.75 mg/kg/injection, schedule: Q01DX001 (ip), vehicle: saline) of the same compound?
Its survivor count is 2 of 5.

What about the survivor count (dose: 0.75 mg/kg/injection, schedule: Q01DX005 (ip), vehicle: saline) of the same compound?
Its survivor count is 0 of 5.

What about the survivor count (dose: 1.5 mg/kg/injection, schedule: Q01DX001 (ip), vehicle: saline) of the same compound?
The survivor count was 1 of 5.

And the survivor count (dose: 1.5 mg/kg/injection, schedule: Q01DX005 (ip), vehicle: saline)?
Its survivor count is 0 of 5.

What about the survivor count (dose: 1.56 mg/kg/injection, schedule: Q01DX001 (ip), vehicle: saline) of the same compound?
The survivor count was 1 of 5.

And the survivor count (dose: 3.12 mg/kg/injection, schedule: Q01DX001 (ip), vehicle: saline)?
Its survivor count is 0 of 5.

And the survivor count (dose: 6.25 mg/kg/injection, schedule: Q01DX001 (ip), vehicle: saline)?
The survivor count was 0 of 5.

And the survivor count (dose: 12.5 mg/kg/injection, schedule: Q01DX001 (ip), vehicle: saline with Tween-80)?
Its survivor count is 0 of 5.

And the survivor count (dose: 12.5 mg/kg/injection, schedule: Q01DX001 (ip), vehicle: saline)?
Its survivor count is 0 of 5.

What about the survivor count (dose: 25.0 mg/kg/injection, schedule: Q01DX001 (ip), vehicle: saline with Tween-80) of the same compound?
The survivor count was 0 of 5.

And the survivor count (dose: 50.0 mg/kg/injection, schedule: Q01DX001 (ip), vehicle: saline with Tween-80)?
The survivor count was 0 of 5.

And the survivor count (dose: 100.0 mg/kg/injection, schedule: Q01DX001 (ip), vehicle: saline with Tween-80)?
Its survivor count is 0 of 5.

What about the survivor count (dose: 200.0 mg/kg/injection, schedule: Q01DX001 (ip), vehicle: saline with Tween-80) of the same compound?
Its survivor count is 0 of 5.

For `CN1CCC2(C)CC1Cc1ccc(O)cc12` (centres undefined), which survivor count (dose: 50.0 mg/kg/injection, schedule: Q01DX005 (ip), vehicle: saline) is on record?
The survivor count was 0 of 6.

What about the survivor count (dose: 100.0 mg/kg/injection, schedule: Q01DX005 (ip), vehicle: saline) of the same compound?
The survivor count was 0 of 6.

And the survivor count (dose: 200.0 mg/kg/injection, schedule: Q01DX005 (ip), vehicle: saline)?
The survivor count was 0 of 6.

`c1ccc2c(NCCCCCCCNc3c4ccccc4nc4ccccc34)c3ccccc3nc2c1` was tested. Which T/C (dose: 0.63 mg/kg/injection, schedule: Q01DX009 (ip), vehicle: other) did it give?
The T/C was 131 % of control.

And the T/C (dose: 1.25 mg/kg/injection, schedule: Q01DX009 (ip), vehicle: other)?
The T/C was 142, 144, 145 % of control [5 of 6 alive].

And the T/C (dose: 2.5 mg/kg/injection, schedule: Q01DX009 (ip), vehicle: other)?
Its T/C is 140 and 147 % of control.

What about the T/C (dose: 3.75 mg/kg/injection, schedule: Q01DX009 (ip), vehicle: other) of the same compound?
The T/C was 137 % of control.

And the T/C (dose: 7.5 mg/kg/injection, schedule: Q01DX009 (ip), vehicle: other)?
The T/C was 147 % of control.

What about the T/C [5] of the same compound?
The T/C was 128 % of control.

What about the survivor count [5] of the same compound?
Its survivor count is 6 of 6.

What about the survivor count (dose: 15.0 mg/kg/injection, schedule: Q01DX009 (ip), vehicle: other) of the same compound?
The survivor count was 3 of 6.

And the survivor count (dose: 20.0 mg/kg/injection, schedule: Q01DX009 (ip), vehicle: other)?
The survivor count was 0 of 6, 2 of 6, 3 of 6.

For `Nc1nc2ncc(CNc3ccc(C(=O)NC(CCC(=O)O)C(=O)O)cc3)nc2c(=O)[nH]1` (centres undefined), which survivor count [2] is on record?
The survivor count was 0 of 6.

What about the survivor count [3] of the same compound?
Its survivor count is 0 of 6.

And the survivor count (dose: 200.0 mg/kg/injection, schedule: Q01DX009 (ip), vehicle: saline)?
The survivor count was 1 of 5.

What about the survivor count (dose: 400.0 mg/kg/injection, schedule: Q01DX009 (ip), vehicle: saline) of the same compound?
The survivor count was 0 of 5.

Which results are given for `CCC(=O)OCC(=O)[C@]1(O)Cc2c(O)c3c(c(O)c2[C@@H](OC2CC(N)C(O)C(C)O2)C1)C(=O)c1c(OC)cccc1C3=O` (some centres undefined)?
T/C (dose: 0.25 mg/kg/injection, schedule: Q01DX009 (ip), vehicle: saline): 125 % of control [9 of 10 alive]; T/C (dose: 0.5 mg/kg/injection, schedule: Q01DX009 (ip), vehicle: saline): 133 % of control; T/C (dose: 1.0 mg/kg/injection, schedule: Q01DX009 (ip), vehicle: saline): 142 % of control; T/C (dose: 2.0 mg/kg/injection, schedule: Q01DX009 (ip), vehicle: saline): 149 % of control; survivor count (dose: 8.0 mg/kg/injection, schedule: Q01DX009 (ip), vehicle: saline): 10 of 10

With `Cn1cnc([N+](=O)[O-])c1Sc1ncn[nH]1` as the compound, how does the T/C [4] read?
Its T/C is 129 % of control (2×).

And the T/C (dose: 100.0 mg/kg/injection, schedule: Q01DX009 (ip), vehicle: saline)?
The T/C was 133 % of control [5 of 6 alive].

What does the source list for `C=CC(=O)NCNC(=O)CCBr`?
T/C (dose: 12.5 mg/kg/injection, schedule: Q01DX009 (ip), vehicle: saline with Tween-80): 127 % of control; T/C (dose: 25.0 mg/kg/injection, schedule: Q01DX009 (ip), vehicle: saline with Tween-80): 140 % of control; T/C (dose: 50.0 mg/kg/injection, schedule: Q01DX009 (ip), vehicle: saline with Tween-80): 131 % of control; T/C (dose: 50.0 mg/kg/injection, schedule: Q04DX003 (ip), vehicle: saline with Tween-80): 127 % of control; survivor count [2]: 6 of 6; T/C (dose: 100.0 mg/kg/injection, schedule: Q04DX003 (ip), vehicle: saline with Tween-80): 127 % of control; T/C (dose: 132.0 mg/kg/injection, schedule: Q04DX003 (ip), vehicle: saline with Tween-80): 140 % of control; survivor count [3]: 6 of 6; survivor count [1]: 6 of 6
